These are yes or no findings as the source states them, for the method shown. In cells and extracts the contact can be indirect. A yes stands for co-enrichment or nearness to the bait. Other partners may have been found. For some of these results: No binding means not detected with the bait.
B1: suppressor of PhyA 1 (SPA1) (protein, UniProt Q9SYX2 1-1029)
chain: MPVMERVAEETVATNNIQLKARVDDVPCNKLDARHNDMVIQSETANSDCPGSSAHRNVDLTKPPPPEEAAGAKLSVEELTLGNYRIVQGSNNTNVDSPRAGKFEHLYRLARGSAFRAGDGDLDSQPRDMDQMLSRIRQQLAGAPSERQNLKPFMSRRSDQNLEAFSERLRAAGENSIMNAPALISEGVQMKTPVSSSNFSQLLLKRAMKGKGVVGKNQETPPEFVSDQDLGSKEKKLDISKSPTPHDVLPLKSSPKGNGMVSHGDGNHSKSSIGISLREFLRSSYAKREKRHGLCLFRQLVELVDSAHSKRLFLLDLRPSLFTLVPSKKLRYIGNFGKNDLESDVDEDLNRRRPVVEESSSGGRDSKKRKMDLHLNSPGNQLQATSTGRPFKRKSPVIDLNMVDARNPDSCELQQQDYIKNLSVSSVSRKQSMSTWLEEQWYTCPEEINGEDIGEKSNIYALGVLLFELLCHCESGEMHAAMMADLRHRILPPTFLSKYPKEAGFCLWLLHPEPSSRPSARDILKSELICEDDSVKSTAAAEEISELLLHFLSSLEVQKKKKASKLLQDIQTLEDDIKEAERRYSSNVSLVRSHGAIEKRVQSSPLDEHCTTSSALFVPTANTDRLMSNIRQLEDAYFFMRSQINLSSSAATARSDKTLKDRDRCSENQNENQDMSTKGKSSDQLEVFFEGLCKFARYSKFETCGTIRSGDLLNSASVVCSLSFDPDEEHIAAAGISKKIKIFDFNAFMNESVGVHYPLVEMVNKSKLSCVCWNSYIKNYLASTDYDGVVQIWDAGTGQGFSQYTEHQKRAWSVDFSPSDPTKFVSGSDDCSVKLWSINEKRSLGTIWSPANVCCVQFSSYSNHLLAFGSADYKVYCYDLRYVKTPWCTLAGHEKAVSYVKFMDSETIVSASTDNSLKLWNLNKTNSSGLSPGACSLTYKGHTNQKNFVGLSVLDGYIACGSETNEVYSYYKSLPMPMTSYKFGSVDPISGNEYFDDNGQFVSSVCWRKKSNMLVAANSTGNMKLLKLV

Sequences of proteins named here, by UniProt entry; tags and fusion partners are left off. A change or cut given only in a name is not applied to a line headed by its entry.
UniProt Q96524: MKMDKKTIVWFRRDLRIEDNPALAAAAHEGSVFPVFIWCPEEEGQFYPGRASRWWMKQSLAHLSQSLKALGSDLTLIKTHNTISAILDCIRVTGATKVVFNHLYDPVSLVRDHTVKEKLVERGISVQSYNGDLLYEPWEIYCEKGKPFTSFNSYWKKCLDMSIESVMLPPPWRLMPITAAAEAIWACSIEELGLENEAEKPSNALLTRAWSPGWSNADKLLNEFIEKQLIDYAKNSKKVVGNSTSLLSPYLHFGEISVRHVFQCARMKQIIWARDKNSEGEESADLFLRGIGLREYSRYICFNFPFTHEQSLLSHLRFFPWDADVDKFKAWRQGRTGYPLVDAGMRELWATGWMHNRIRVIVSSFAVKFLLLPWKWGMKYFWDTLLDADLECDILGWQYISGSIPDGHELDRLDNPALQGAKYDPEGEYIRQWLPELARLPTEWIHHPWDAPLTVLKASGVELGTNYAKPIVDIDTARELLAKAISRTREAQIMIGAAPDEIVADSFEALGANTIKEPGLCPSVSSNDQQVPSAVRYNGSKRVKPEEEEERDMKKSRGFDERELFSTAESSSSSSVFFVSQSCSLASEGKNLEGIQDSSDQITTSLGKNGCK
UniProt Q9LID3: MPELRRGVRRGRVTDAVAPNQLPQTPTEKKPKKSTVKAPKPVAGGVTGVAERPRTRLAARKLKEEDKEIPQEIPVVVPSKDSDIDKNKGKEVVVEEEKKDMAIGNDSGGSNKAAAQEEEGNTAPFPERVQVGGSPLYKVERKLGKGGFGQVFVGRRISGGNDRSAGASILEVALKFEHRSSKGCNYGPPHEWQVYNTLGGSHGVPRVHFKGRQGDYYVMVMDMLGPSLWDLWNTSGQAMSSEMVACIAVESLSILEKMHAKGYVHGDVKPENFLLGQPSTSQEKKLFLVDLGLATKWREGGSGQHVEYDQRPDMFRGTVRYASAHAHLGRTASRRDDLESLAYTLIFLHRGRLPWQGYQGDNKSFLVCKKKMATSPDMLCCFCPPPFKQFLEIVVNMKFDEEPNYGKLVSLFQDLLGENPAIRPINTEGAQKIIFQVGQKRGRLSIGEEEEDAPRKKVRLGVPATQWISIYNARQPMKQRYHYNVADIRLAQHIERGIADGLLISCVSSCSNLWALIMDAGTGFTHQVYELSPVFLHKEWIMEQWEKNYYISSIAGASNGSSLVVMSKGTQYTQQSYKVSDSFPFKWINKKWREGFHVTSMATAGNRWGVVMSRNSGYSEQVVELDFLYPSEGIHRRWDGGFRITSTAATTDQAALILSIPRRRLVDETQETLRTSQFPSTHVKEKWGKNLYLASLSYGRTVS
UniProt Q9FK52: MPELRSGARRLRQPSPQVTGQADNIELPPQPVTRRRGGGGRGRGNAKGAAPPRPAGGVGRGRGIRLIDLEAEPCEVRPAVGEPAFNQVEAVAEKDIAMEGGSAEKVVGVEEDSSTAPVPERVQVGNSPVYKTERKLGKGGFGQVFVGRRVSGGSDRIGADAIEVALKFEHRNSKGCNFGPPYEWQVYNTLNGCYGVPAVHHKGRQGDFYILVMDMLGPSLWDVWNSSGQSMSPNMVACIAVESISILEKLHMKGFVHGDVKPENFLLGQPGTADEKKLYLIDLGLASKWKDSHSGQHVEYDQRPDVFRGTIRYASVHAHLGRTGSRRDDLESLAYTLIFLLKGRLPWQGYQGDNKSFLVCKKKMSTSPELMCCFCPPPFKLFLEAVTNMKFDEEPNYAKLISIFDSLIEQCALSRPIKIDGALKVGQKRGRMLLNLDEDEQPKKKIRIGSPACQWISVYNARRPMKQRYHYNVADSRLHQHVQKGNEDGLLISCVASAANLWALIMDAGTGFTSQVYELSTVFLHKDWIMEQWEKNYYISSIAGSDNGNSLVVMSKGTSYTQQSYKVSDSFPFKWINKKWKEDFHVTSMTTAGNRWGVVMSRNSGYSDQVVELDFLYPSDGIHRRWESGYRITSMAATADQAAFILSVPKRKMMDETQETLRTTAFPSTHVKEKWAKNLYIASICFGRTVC
UniProt Q9SQR8: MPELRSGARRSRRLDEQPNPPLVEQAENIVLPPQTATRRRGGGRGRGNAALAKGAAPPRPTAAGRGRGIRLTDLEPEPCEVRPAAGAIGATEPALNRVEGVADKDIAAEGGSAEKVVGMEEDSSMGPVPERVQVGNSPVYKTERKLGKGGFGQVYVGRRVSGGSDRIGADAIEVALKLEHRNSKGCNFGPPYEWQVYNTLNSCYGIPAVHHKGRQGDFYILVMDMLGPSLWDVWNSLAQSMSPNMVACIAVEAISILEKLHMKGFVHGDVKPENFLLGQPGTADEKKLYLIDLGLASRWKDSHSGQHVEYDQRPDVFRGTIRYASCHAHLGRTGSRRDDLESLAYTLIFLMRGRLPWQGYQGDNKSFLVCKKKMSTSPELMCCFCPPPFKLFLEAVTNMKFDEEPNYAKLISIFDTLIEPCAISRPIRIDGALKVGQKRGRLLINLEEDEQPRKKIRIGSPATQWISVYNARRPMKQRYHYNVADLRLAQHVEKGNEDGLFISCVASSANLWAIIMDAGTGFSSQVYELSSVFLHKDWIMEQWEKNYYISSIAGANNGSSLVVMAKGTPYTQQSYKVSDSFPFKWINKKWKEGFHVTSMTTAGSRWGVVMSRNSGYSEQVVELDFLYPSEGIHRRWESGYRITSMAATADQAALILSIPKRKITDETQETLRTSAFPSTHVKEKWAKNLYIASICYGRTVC

Legend:
[1] = target: GFP-CRY2 fusion protein (Arabidopsis cryptochrome 2) (Arabidopsis) (UniProt Q96524); experiment: affinity purification with mass spectrometry; GFP-CRY2 isolated by GFP-trap from 35S::GFP-CRY2 seedlings kept in the dark (dark control); IP buffer 50 mM Tris-HCl pH 7.5, 150 mM NaCl, 1% Triton X-100, 4 °C; label-free LC-MS/MS
[2] = target: GFP-CRY2 fusion protein (Arabidopsis cryptochrome 2) (Arabidopsis) (UniProt Q96524); experiment: affinity purification with mass spectrometry; GFP-CRY2 isolated by GFP-trap from 35S::GFP-CRY2 seedlings exposed to blue light for 60 min after one day of darkness; IP buffer 50 mM Tris-HCl pH 7.5, 150 mM NaCl, 1% Triton X-100, 4 °C; label-free LC-MS/MS
[3] = target: GFP-CRY2 fusion protein (Arabidopsis cryptochrome 2) (Arabidopsis) (UniProt Q96524); experiment: as above; remark: listed apart in the source

Molecule	binding [1]	binding [2]	binding [3]
Photoregulatory Protein Kinase 1 (PPK1), endogenous (from UniProt Q9LID3) (enzyme)	no binding (only plants kept in the dark)	binds	–
Photoregulatory Protein Kinase 2 (PPK2), endogenous (from UniProt Q9FK52) (enzyme)	no binding (only plants kept in the dark)	binds	–
Photoregulatory Protein Kinase 3 (PPK3), endogenous (from UniProt Q9SQR8) (enzyme)	no binding (only plants kept in the dark)	binds	–
B1	–	–	binds
